Data as given in publication PMC12080455.
These are yes or no findings as the source states them, for the method shown. In cells and extracts the contact can be indirect. A yes stands for co-enrichment or nearness to the bait. Other partners may have been found.

Protein sequences, listed by entry. Tags and fused reporters are not part of them. Lines headed by an entry give the natural chain unless they say otherwise; changes in a name come on top.
UniProt Q12873: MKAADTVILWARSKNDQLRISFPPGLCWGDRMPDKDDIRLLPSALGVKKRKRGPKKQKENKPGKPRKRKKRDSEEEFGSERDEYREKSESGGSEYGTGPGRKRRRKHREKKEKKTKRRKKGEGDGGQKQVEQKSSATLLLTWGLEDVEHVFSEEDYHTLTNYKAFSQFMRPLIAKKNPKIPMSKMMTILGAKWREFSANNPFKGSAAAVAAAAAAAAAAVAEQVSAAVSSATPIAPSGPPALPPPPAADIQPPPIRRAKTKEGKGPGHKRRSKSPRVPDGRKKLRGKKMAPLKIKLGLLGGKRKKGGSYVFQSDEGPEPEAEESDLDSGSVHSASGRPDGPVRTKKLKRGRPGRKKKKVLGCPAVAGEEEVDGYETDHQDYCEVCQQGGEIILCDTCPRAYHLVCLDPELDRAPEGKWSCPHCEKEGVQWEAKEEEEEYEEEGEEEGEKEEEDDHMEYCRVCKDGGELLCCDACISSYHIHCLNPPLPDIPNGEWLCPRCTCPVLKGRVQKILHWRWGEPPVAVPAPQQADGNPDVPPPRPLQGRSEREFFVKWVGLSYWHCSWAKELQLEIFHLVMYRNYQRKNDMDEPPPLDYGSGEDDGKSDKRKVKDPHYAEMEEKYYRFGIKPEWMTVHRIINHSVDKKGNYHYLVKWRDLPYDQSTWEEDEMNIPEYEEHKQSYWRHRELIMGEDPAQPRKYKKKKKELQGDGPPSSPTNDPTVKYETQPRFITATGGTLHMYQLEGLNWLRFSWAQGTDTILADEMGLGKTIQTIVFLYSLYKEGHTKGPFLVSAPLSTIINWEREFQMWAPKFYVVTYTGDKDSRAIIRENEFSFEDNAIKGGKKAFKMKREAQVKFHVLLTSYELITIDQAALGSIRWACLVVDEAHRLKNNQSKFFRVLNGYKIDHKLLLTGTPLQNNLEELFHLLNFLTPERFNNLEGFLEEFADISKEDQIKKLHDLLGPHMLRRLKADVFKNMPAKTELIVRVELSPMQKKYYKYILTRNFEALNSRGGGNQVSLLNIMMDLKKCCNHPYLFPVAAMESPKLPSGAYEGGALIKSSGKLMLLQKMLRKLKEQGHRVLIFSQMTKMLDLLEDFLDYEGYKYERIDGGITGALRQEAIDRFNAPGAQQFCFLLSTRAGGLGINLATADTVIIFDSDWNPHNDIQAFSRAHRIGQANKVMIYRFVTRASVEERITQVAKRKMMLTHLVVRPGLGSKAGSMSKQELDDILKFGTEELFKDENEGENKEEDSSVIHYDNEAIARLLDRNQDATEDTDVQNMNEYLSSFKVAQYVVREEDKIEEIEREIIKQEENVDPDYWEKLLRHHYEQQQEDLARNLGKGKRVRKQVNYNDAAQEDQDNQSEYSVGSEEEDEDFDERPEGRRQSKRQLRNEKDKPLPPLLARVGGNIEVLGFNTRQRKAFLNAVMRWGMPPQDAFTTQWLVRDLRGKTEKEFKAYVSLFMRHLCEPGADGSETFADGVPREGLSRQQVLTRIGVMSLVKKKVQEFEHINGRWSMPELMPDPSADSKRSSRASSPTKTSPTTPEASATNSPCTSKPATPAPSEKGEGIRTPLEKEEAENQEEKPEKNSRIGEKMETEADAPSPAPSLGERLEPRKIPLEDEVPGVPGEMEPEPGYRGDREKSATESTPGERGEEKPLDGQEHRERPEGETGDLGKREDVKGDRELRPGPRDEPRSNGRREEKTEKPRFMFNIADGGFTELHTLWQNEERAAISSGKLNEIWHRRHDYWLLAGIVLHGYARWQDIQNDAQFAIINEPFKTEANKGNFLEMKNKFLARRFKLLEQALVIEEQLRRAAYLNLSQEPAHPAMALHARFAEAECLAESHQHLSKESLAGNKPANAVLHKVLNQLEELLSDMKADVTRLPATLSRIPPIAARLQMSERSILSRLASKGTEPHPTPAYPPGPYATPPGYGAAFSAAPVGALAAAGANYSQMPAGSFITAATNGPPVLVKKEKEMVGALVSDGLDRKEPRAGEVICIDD
UniProt Q14839: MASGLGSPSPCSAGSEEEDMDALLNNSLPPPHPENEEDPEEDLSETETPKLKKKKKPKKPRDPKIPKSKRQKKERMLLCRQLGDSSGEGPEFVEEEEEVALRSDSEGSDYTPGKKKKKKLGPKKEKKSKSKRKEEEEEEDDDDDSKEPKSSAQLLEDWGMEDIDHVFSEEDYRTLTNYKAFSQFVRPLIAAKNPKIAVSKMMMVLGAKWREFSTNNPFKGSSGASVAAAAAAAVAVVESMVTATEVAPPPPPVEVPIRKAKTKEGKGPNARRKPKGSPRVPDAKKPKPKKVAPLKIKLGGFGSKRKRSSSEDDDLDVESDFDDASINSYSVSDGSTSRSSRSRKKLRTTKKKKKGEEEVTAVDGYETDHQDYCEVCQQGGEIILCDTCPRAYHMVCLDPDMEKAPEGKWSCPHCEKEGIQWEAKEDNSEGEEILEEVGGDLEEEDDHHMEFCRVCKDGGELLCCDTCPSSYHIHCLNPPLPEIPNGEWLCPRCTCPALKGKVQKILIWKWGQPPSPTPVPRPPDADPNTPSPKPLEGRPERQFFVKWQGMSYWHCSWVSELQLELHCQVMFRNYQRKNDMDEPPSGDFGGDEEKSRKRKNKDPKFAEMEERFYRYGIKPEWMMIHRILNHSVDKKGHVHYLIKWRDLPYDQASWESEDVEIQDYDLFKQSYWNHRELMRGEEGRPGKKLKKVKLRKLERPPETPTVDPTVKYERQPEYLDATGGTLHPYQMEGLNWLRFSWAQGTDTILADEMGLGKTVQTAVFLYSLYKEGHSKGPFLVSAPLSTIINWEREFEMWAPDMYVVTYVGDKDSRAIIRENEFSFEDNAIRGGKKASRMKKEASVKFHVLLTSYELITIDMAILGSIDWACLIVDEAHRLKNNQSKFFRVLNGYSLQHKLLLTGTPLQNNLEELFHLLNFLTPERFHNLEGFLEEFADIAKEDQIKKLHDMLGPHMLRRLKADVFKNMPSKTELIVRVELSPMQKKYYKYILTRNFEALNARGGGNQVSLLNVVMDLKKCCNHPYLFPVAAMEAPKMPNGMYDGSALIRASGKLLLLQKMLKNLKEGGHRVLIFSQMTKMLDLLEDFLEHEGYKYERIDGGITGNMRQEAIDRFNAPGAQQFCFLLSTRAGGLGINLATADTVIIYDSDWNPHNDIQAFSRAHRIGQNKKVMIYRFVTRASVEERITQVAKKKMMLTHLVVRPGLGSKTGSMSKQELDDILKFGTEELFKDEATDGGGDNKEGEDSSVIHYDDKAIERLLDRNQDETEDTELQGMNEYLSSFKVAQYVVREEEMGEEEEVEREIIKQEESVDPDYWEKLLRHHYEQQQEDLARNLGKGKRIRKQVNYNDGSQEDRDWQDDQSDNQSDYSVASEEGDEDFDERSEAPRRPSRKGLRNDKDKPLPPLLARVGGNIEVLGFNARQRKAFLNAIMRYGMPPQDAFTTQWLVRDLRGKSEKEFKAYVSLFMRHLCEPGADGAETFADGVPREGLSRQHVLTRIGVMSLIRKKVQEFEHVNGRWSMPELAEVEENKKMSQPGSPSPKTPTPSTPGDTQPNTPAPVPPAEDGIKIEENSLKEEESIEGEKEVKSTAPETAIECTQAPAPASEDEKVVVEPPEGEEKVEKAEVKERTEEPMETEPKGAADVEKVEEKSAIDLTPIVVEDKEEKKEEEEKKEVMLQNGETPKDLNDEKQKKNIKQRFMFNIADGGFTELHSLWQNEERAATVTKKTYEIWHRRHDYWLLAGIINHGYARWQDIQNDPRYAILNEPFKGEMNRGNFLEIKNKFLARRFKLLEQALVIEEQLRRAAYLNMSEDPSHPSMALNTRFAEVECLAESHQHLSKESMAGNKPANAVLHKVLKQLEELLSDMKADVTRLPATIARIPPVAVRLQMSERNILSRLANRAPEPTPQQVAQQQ
UniProt Q9BY89: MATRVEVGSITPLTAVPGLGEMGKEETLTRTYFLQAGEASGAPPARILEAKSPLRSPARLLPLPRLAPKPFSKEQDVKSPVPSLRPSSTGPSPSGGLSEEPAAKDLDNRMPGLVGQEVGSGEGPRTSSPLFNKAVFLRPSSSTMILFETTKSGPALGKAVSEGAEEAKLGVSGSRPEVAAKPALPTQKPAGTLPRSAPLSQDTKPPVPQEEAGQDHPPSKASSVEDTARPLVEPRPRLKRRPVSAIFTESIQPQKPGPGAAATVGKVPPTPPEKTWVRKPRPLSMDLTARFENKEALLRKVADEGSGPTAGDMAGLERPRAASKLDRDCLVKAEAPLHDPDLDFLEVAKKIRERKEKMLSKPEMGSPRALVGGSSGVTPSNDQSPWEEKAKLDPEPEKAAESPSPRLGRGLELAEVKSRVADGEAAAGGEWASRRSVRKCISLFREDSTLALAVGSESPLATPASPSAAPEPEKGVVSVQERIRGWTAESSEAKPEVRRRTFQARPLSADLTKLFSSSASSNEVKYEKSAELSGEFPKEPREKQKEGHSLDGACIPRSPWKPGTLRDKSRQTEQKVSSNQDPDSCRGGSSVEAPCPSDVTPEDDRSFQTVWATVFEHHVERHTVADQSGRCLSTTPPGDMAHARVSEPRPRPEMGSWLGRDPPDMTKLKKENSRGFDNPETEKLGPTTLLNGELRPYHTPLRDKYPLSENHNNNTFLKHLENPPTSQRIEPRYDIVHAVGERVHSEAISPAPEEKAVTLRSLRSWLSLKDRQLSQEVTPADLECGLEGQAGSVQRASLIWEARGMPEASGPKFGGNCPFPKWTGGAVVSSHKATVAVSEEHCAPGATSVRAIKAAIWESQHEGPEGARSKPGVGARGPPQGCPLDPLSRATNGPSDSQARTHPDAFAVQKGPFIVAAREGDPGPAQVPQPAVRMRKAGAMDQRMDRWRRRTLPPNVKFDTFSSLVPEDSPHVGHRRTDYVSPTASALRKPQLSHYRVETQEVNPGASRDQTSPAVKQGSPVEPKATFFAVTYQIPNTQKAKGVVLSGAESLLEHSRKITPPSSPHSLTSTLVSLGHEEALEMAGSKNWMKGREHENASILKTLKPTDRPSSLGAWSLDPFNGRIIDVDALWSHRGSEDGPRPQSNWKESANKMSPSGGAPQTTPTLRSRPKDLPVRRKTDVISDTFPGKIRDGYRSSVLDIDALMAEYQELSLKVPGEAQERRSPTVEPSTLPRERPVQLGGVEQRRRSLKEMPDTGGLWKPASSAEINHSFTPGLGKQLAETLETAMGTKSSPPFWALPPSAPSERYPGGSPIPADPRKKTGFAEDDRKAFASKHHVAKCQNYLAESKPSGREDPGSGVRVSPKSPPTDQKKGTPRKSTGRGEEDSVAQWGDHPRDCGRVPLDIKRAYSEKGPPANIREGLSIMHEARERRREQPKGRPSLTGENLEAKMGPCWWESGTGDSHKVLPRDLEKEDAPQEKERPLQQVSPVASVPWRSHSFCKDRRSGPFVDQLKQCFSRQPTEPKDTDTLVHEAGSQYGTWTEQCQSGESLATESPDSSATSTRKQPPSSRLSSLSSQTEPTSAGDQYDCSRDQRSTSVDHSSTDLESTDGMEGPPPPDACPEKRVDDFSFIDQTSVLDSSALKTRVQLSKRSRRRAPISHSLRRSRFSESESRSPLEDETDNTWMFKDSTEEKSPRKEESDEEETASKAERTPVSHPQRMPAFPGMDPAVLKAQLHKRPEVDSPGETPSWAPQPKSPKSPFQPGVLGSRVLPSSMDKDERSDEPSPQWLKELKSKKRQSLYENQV

Key:
Test in all cases: affinity purification with mass spectrometry; FLAG-tagged CHD N- or C-terminal fragment overexpressed in Expi293 cells; nuclear fraction lysed in 50 mM Tris-HCl, 150 mM NaCl, 0.5% IGEPAL, pH 7.5, with nuclease and sonication; FLAG antibody beads 2 h; washes with 200 mM NaCl; against FLAG empty vector; triplicate
[1] = target: FLAG-tagged CHD3 C-terminus (human) (UniProt Q12873)
[2] = target: FLAG-tagged CHD4 C-terminus (human) (UniProt Q14839)
[3] = target: FLAG-tagged CHD5 C-terminus (human) (UniProt Q8TDI0)
[4] = target: FLAG-tagged CHD9 N-terminus (human) (UniProt Q3L8U1)

Molecule	binding [1]	binding [2]	binding [3]	binding [4]
KIAA1671 (from UniProt Q9BY89 1-1806)	binds	binds	binds	
zinc finger MYM‐type‐containing (ZMYM2) (protein, UniProt Q9UBW7 1-1377) MDTSSVGGLELTDQTPVLLGSTAMATSLTNVGNSFSGPANPLVSRSNKFQNSSVEDDDDVVFIEPVQPPPPSVPVVADQRTITFTSSKNEELQGNDSKITPSSKELASQKGSVSETIVIDDEEDMETNQGQEKNSSNFIERRPPETKNRTNDVDFSTSSFSRSKVNAGMGNSGITTEPDSEIQIANVTTLETGVSSVNDGQLENTDGRDMNLMITHVTSLQNTNLGDVSNGLQSSNFGVNIQTYTPSLTSQTKTGVGPFNPGRMNVAGDVFQNGESATHHNPDSWISQSASFPRNQKQPGVDSLSPVASLPKQIFQPSVQQQPTKPVKVTCANCKKPLQKGQTAYQRKGSAHLFCSTTCLSSFSHKPAPKKLCVMCKKDITTMKGTIVAQVDSSESFQEFCSTSCLSLYEDKQNPTKGALNKSRCTICGKLTEIRHEVSFKNMTHKLCSDHCFNRYRMANGLIMNCCEQCGEYLPSKGAGNNVLVIDGQQKRFCCQSCVSEYKQVGSHPSFLKEVRDHMQDSFLMQPEKYGKLTTCTGCRTQCRFFDMTQCIGPNGYMEPYCSTACMNSHKTKYAKSQSLGIICHFCKRNSLPQYQATMPDGKLYNFCNSSCVAKFQALSMQSSPNGQFVAPSDIQLKCNYCKNSFCSKPEILEWENKVHQFCSKTCSDDYKKLHCIVTYCEYCQEEKTLHETVNFSGVKRPFCSEGCKLLYKQDFARRLGLRCVTCNYCSQLCKKGATKELDGVVRDFCSEDCCKKFQDWYYKAARCDCCKSQGTLKERVQWRGEMKHFCDQHCLLRFYCQQNEPNMTTQKGPENLHYDQGCQTSRTKMTGSAPPPSPTPNKEMKNKAVLCKPLTMTKATYCKPHMQTKSCQTDDTWRTEYVPVPIPVPVYIPVPMHMYSQNIPVPTTVPVPVPVPVFLPAPLDSSEKIPAAIEELKSKVSSDALDTELLTMTDMMSEDEGKTETTNINSVIIETDIIGSDLLKNSDPETQSSMPDVPYEPDLDIEIDFPRAAEELDMENEFLLPPVFGEEYEEQPRPRSKKKGAKRKAVSGYQSHDDSSDNSECSFPFKYTYGVNAWKHWVKTRQLDEDLLVLDELKSSKSVKLKEDLLSHTTAELNYGLAHFVNEIRRPNGENYAPDSIYYLCLGIQEYLCGSNRKDNIFIDPGYQTFEQELNKILRSWQPSILPDGSIFSRVEEDYLWRIKQLGSHSPVALLNTLFYFNTKYFGLKTVEQHLRLSFGTVFRHWKKNPLTMENKACLRYQVSSLCGTDNEDKITTGKRKHEDDEPVFEQIENTANPSRCPVKMFECYLSKSPQNLNQRMDVFYLQPECSSSTDSPVWYTSTSLDRNTLENMLVRVLLVKDIYDKDNYELDEDTD				binds
